# In the supplement of paper PMC10849652:
# Sequences of proteins named here, by UniProt entry; tags and fusion partners are left off. A change or cut given only in a name is not applied to a line headed by its entry.
# UniProt Q8IX07: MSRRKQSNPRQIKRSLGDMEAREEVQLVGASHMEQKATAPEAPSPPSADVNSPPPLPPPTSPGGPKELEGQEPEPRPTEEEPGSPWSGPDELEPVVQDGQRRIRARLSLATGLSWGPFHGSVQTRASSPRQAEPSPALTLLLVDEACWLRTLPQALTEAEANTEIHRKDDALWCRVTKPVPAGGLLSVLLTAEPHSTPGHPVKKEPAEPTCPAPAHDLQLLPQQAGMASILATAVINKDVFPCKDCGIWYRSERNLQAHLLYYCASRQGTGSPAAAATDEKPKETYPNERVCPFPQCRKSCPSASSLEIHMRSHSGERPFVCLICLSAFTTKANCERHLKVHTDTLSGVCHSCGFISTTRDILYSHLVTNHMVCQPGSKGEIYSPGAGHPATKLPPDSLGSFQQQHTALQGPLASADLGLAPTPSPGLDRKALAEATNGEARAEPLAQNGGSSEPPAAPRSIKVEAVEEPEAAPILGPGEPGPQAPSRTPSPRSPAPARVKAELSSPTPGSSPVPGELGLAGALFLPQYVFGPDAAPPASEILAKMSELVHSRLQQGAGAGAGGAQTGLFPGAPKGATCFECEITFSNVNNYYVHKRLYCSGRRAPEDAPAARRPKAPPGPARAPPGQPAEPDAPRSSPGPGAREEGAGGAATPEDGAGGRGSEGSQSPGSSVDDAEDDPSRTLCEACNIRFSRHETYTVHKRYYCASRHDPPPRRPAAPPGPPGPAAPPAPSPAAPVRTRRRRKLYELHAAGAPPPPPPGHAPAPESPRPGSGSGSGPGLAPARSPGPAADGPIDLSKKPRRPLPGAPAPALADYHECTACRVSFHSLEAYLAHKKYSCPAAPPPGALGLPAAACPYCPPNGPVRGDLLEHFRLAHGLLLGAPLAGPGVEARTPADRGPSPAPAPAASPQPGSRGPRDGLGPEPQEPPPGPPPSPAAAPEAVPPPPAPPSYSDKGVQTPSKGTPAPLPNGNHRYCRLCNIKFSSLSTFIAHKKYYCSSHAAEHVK
# UniProt Q9ULJ3: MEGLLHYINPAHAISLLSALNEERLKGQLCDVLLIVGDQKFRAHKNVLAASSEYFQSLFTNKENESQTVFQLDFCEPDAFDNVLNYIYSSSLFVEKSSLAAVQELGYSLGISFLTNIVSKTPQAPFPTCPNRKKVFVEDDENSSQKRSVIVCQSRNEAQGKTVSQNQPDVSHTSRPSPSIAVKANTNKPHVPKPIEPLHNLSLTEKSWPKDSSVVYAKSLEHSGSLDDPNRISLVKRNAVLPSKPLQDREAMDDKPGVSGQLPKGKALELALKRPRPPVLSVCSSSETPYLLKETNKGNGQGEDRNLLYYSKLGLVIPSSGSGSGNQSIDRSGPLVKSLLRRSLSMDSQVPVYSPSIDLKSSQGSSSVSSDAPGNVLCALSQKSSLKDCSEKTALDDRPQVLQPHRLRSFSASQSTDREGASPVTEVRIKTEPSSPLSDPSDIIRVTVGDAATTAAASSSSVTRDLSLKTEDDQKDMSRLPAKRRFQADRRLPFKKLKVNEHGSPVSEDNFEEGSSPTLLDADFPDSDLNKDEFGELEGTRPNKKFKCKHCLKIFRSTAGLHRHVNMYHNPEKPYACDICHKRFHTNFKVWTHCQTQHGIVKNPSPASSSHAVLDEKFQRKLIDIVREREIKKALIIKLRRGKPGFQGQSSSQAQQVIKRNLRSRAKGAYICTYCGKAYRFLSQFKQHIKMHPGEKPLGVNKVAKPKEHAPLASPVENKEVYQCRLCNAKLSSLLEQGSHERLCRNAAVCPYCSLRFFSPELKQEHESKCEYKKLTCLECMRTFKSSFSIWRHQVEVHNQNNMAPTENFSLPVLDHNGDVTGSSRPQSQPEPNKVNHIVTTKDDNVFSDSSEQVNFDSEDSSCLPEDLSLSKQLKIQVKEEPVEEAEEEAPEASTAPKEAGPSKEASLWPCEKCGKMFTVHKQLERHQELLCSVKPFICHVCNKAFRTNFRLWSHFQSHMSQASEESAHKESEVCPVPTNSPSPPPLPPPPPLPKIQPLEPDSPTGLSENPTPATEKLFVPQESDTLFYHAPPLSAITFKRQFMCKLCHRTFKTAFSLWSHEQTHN
# UniProt O60315: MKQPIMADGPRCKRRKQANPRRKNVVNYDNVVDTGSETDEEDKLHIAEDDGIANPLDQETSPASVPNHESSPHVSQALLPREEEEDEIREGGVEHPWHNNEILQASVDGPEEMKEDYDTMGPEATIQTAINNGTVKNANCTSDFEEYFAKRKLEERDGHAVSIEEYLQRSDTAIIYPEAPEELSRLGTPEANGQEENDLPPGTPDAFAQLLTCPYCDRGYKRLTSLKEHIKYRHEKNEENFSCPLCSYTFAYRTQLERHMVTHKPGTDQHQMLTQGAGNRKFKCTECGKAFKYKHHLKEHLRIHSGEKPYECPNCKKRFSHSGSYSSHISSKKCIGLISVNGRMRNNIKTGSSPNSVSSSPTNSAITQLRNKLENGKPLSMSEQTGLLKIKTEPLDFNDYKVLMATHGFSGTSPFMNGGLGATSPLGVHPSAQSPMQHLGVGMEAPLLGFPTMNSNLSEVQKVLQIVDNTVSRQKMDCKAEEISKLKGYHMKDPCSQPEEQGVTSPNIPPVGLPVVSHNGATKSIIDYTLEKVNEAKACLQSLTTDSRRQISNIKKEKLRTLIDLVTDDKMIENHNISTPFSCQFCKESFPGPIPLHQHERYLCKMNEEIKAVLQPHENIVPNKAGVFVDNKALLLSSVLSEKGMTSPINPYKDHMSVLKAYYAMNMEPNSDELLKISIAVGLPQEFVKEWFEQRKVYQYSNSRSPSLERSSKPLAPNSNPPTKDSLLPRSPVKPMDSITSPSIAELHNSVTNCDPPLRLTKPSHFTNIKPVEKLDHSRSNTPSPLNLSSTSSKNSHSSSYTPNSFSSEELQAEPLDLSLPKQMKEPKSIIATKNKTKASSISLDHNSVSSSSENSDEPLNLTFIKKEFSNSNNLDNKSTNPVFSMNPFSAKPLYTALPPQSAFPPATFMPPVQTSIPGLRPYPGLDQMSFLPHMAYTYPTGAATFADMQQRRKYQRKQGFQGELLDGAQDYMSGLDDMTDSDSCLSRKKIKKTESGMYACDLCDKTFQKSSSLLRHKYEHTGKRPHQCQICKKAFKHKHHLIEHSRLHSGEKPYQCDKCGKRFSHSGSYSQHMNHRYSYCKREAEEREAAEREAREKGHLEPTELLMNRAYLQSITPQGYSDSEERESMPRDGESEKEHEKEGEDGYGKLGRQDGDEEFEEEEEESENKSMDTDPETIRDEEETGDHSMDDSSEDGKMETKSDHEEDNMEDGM
# UniProt Q96DA0: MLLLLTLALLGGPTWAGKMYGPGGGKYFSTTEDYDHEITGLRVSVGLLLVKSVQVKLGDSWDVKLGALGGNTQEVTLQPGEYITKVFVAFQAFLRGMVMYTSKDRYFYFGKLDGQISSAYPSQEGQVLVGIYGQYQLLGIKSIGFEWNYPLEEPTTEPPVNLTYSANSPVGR
# UniProt Q96DT7: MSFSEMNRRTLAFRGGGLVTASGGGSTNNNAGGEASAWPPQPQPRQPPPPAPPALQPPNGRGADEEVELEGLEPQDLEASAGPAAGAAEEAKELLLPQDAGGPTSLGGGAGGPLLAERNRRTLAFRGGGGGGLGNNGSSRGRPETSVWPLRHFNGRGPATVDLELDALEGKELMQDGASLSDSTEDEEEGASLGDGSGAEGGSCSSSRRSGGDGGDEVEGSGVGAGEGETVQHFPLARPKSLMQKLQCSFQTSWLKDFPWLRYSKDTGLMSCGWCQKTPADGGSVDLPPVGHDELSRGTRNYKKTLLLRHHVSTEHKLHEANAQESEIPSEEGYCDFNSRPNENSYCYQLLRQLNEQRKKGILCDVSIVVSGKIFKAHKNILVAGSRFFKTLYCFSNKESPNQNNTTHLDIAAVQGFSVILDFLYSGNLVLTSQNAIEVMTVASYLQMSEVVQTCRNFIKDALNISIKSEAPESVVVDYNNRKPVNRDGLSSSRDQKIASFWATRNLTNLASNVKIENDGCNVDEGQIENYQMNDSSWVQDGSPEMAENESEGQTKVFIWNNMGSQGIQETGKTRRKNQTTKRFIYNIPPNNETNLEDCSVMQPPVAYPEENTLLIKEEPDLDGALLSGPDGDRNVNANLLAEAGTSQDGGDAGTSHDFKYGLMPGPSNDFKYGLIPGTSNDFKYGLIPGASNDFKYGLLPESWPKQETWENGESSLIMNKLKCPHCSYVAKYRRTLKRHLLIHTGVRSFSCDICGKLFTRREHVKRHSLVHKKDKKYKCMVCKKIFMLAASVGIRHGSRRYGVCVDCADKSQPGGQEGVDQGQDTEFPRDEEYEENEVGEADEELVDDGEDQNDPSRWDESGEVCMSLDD
# UniProt Q8TBF4: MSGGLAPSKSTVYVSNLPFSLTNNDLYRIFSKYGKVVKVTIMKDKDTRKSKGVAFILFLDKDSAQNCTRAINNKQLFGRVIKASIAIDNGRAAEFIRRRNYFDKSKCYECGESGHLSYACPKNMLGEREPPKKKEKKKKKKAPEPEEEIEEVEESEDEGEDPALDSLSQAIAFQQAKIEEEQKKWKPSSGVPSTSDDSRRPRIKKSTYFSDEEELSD
# UniProt O43592: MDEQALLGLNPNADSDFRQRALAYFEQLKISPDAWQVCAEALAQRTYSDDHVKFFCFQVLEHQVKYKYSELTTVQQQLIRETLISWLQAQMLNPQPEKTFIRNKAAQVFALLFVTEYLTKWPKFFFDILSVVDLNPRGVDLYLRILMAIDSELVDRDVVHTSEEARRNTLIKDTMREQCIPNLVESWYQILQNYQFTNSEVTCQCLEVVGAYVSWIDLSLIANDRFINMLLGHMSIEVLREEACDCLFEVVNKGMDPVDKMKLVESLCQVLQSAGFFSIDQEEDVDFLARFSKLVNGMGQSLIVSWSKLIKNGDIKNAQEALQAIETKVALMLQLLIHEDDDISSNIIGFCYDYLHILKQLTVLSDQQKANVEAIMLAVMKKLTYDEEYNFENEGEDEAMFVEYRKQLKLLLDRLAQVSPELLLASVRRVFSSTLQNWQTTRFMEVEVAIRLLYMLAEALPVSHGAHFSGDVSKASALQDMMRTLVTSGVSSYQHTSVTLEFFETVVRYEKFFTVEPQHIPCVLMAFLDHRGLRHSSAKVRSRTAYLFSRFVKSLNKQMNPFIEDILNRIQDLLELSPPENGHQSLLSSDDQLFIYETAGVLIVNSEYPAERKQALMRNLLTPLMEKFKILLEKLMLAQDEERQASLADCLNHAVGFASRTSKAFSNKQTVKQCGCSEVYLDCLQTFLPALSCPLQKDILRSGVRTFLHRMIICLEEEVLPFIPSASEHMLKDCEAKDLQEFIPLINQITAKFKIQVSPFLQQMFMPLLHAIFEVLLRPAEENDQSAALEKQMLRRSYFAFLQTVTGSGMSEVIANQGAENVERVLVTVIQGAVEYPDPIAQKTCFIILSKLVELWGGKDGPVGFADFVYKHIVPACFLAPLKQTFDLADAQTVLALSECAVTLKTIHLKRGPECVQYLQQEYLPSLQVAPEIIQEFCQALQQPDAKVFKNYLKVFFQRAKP
# UniProt P62699: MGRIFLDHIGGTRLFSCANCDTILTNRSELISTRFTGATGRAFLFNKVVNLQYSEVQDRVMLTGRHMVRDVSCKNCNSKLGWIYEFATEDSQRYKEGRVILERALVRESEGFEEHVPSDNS
# UniProt Q9H8U3: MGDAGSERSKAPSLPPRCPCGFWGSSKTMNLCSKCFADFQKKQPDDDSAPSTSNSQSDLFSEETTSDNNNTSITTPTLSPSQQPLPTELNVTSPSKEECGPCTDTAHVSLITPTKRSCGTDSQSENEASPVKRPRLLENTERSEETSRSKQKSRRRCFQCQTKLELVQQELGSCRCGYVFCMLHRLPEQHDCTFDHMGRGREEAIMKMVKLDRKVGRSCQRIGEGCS
# UniProt O43670: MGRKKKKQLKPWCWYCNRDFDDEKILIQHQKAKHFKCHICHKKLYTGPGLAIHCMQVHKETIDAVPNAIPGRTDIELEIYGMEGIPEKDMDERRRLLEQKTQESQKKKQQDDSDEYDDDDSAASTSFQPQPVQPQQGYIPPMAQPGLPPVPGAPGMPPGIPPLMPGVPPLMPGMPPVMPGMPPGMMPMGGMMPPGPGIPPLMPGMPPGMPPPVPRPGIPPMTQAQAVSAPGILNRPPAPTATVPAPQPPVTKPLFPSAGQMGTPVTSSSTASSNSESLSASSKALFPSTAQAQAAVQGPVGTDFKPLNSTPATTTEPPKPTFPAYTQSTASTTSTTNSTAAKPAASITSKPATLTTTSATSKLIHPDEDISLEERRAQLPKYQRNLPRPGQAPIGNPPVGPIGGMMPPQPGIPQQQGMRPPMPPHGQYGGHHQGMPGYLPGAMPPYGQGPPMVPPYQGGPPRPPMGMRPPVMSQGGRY
# This is one part of the list.
# Key:
# Test in all cases: log2 fold change, soluble protein after heating vs DMSO (PISA); higher = thermal stabilisation; K562 cells, 10 uM, 30 min; active = over 0.2 and 3.5 SD of the protein, either way, in both replicates (recomputed)
# [1] = compound: CC1=C(C=C(C=C1)NC(=O)C2=CC(=CC=C2)C(C)(C)C#N)NC3=CC4=C(C=C3)N=CN(C4=O)C
# Procedure, shortened: (§1)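 Values are thermal stability changes relative to control samples and are taken from duplicates. They are stated as log2 fold changes. Before quantification by TMTpro 16plex LC-MS/MS with equalised channel sums, K562 cells at 2×10^6 cells/mL were treated with 10 μM compound for 30 min, heated in aliquots for 3 min across 48°C-58°C, pooled, extracted in PBS with 0.5% NP-40 at 4°C, and centrifuged at 21,000xg for 90 min to give the soluble supernatant.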
# [2] = compound: CC1=C(C=C(C=C1)NC(=O)C2=CC(=CC=C2)N(C)C)NC(=O)C3=CC=C(C=C3)O
# Procedure, shortened: as §1
# [3] = compound: CC1=CC=C(C=C1)SC2=C3C=C(SC3=CN=C2)C(=O)N
# Procedure, shortened: as §1
# [4] = compound: CCCCN(Cc1ccc(C(=O)NO)cc1)C(=O)Nc1ccccc1 [Nexturastat A]
# Procedure, shortened: as §1
# [5] = compound: CCCS(=O)(=O)Nc1ccc(F)c(C(=O)c2c[nH]c3ncc(-c4ccc(Cl)cc4)cc23)c1F [vemurafenib]
# Procedure, shortened: as §1
# [6] = compound: CCCS(=O)(=O)Nc1ccc(F)c(C(=O)c2c[nH]c3ncc(Cl)cc23)c1F
# Procedure, shortened: as §1
# [7] = compound: CCN(CC)Cc1ccc2cc(COC(=O)Nc3ccc(C(=O)NO)cc3)ccc2c1 [givinostat]
# Procedure, shortened: as §1
# [8] = compound: CCN(CCCOc1ccc2c(Nc3cc(CC(=O)Nc4cccc(F)c4)[nH]n3)ncnc2c1)CCOP(=O)(O)O [barasertib]
# Procedure, shortened: as §1
# [9] = compound: CC[C@@H]1C(=O)N(C)c2cnc(Nc3ccc(C(=O)NC4CCN(C)CC4)cc3OC)nc2N1C1CCCC1
# Procedure, shortened: as §1
# [10] = compound: CC[C@@H]1C(=O)N(C)c2cnc(Nc3ccc(C(=O)N[C@H]4CC[C@H](N5CCN(CC6CC6)CC5)CC4)cc3OC)nc2N1C(C)C [volasertib]
# Procedure, shortened: as §1
# [11] = compound: CC[C@H](C)N1C=C(C2=C(C=C(C=C21)C3=CN=C(C=C3)N4CCNCC4)C(=O)NCC5=C(C=C(NC5=O)C)C)C
# Procedure, shortened: as §1
# [12] = compound: CC[C@H](C)[C@@H](C(=O)N[C@@H]([C@@H](C)O)C(=O)N[C@@H](CC(C)C)C(=O)[C@]1(CO1)C)NC(=O)[C@H]([C@@H](C)CC)N(C)C(=O)C [epoxomicin]
# Procedure, shortened: as §1
# [13] = compound: CCn1c(C(=O)N(C2CC2)C2CC2)cc2c3c(ncn3C)c(Nc3cc(C)n(C)n3)nc21
# Procedure, shortened: as §1
# [14] = compound: CN(C)CC(=O)Nc1ccc2[nH]c(=O)c3ccccc3c2c1
# Procedure, shortened: as §1
# [15] = compound: CN(CCOC1=CC=C(C=C1)C[C@H]2C(=O)NC(=O)S2)C3=CC=CC=N3 (racemic) [rosiglitazone]
# Procedure, shortened: as §1
# [16] = compound: CN1C2=C(C3=C1C(=O)N(N=C3)CC4=CC(=CC=C4)N)SC(=C2)S(=O)C
# Procedure, shortened: as §1
# [17] = compound: CC1=NC(=CC=C1)C2=C(N=C(N2)C(C)(C)C)C3=CC4=NC=CN=C4C=C3
# Procedure, shortened: as §1
# [18] = compound: CCCc1cc(C)[nH]c(=O)c1CNC(=O)c1cc(-c2ccnc(N3CCN(C)CC3)c2)cc2c1cnn2C(C)C
# Procedure, shortened: as §1
# [19] = compound: CCn1cc(-c2ccnc3[nH]c(-c4cccc(CN(C)C)c4)cc23)c(-c2ccc(NC(=O)N(C)C)cc2)n1
# Procedure, shortened: as §1
# [20] = compound: CN1CCC(CNc2ccc3ncc(-c4cccc(OC(F)(F)F)c4)n3n2)CC1
# Procedure, shortened: as §1
Target,log2 fold change [1],log2 fold change [2],log2 fold change [3],log2 fold change [4],log2 fold change [5],log2 fold change [6],log2 fold change [7],log2 fold change [8],log2 fold change [9],log2 fold change [10],log2 fold change [11],log2 fold change [12],log2 fold change [13],log2 fold change [14],log2 fold change [15],log2 fold change [16],log2 fold change [17],log2 fold change [18],log2 fold change [19],log2 fold change [20]
ZFPM1 (UniProt Q8IX07),inactive: 0.079,inactive: 0.032,inactive: -0.046,inactive: -0.129,inactive: 0.105,inactive: -0.02,inactive: 0.123,inactive: -0.248,inactive: -0.008,inactive: 0.002,inactive: -0.003,inactive: 0.009,inactive: -0.261,inactive: 0.238,inactive: 0.172,inactive: -0.14,–,–,–,–
ZBTB21 (UniProt Q9ULJ3),inactive: -0.03,inactive: 0.101,inactive: 0.008,inactive: 0.106,inactive: -0.032,inactive: 0.091,inactive: -0.045,inactive: -0.043,–,inactive: -0.063,inactive: 0.059,inactive: -0.168,–,inactive: 0.018,–,inactive: 0.049,inactive: -0.03,inactive: -0.008,inactive: -0.073,inactive: -0.149
ZEB2 (UniProt O60315),inactive: -0.027,inactive: 0.071,inactive: -0.012,inactive: 0.047,inactive: 0.256,inactive: 0.123,inactive: 0.193,inactive: 0.117,–,inactive: 0.001,inactive: 0.173,inactive: -0.026,–,inactive: -0.124,–,inactive: 0.098,inactive: 0.031,inactive: -0.067,–,–
ZMYM4 (UniProt Q5VZL5),inactive: 0.107,inactive: -0.027,–,inactive: -0.211,inactive: -0.028,–,inactive: -0.042,inactive: 0.094,inactive: -0.052,–,inactive: 0.023,inactive: -0.048,inactive: 0.008,inactive: -0.025,inactive: 0.038,–,inactive: -0.238,inactive: 0.034,inactive: 0.076,inactive: 0.093
ZG16B (UniProt Q96DA0),inactive: 0.057,–,inactive: 0.054,–,inactive: 0.201,inactive: -0.038,–,inactive: 0.706,inactive: -0.218,inactive: -0.471,–,–,–,inactive: 0.162,inactive: -0.096,–,–,inactive: -0.1,–,–
ZBTB10 (UniProt Q96DT7),inactive: -0.333,–,inactive: 0.022,inactive: 0.015,–,inactive: 0.029,inactive: -0.016,inactive: 0.141,inactive: -0.025,inactive: -0.109,inactive: 0.017,inactive: -0.033,inactive: 0.007,–,inactive: 0.008,–,–,inactive: -0.052,inactive: -0.023,inactive: -0.105
ZC3H7B (UniProt Q9UGR2),inactive: 0.038,inactive: 0.057,–,–,–,–,–,–,inactive: 0.151,–,–,–,–,–,–,inactive: 0.484,inactive: 0.234,inactive: -0.048,inactive: -0.005,inactive: 0.128
ZCRB1 (UniProt Q8TBF4),inactive: -0.221,–,inactive: -0.147,–,–,inactive: -0.074,inactive: -0.049,–,inactive: 0.021,inactive: 0.092,–,–,inactive: -0.025,–,–,–,–,–,inactive: 0.066,inactive: 0.307
ZBED1 (UniProt O96006),inactive: 0.038,–,inactive: 0.039,inactive: 0.062,–,inactive: -0.077,–,inactive: 0.157,–,inactive: -0.076,inactive: 0.23,inactive: 0.061,–,–,inactive: 0.073,inactive: -0.05,–,–,–,–
XPOT (UniProt O43592),inactive: 0.018,inactive: -0.031,inactive: 0.023,inactive: -0.012,inactive: 0.039,inactive: 0.128,inactive: 0.007,inactive: 0.08,active: -0.363,active: -0.855,inactive: 0.04,inactive: -0.033,–,inactive: 0.058,–,inactive: -0.028,inactive: 0.029,inactive: 0.014,inactive: 0.021,inactive: -0.16
YPEL5 (UniProt P62699),inactive: -0.131,inactive: 0.081,inactive: 0.01,inactive: -0.144,inactive: -0.068,inactive: -0.127,inactive: -0.009,inactive: 0.121,inactive: 0.024,inactive: -0.022,inactive: 0.109,inactive: -0.052,–,inactive: 0.008,–,inactive: 0.132,inactive: 0.097,inactive: 0.014,inactive: -0.072,inactive: -0.094
ZNF131 (UniProt P52739),inactive: 0.173,inactive: -0.16,–,inactive: -0.045,–,–,–,inactive: 0.061,–,–,–,inactive: 0.066,–,–,inactive: -0.096,–,inactive: -0.057,–,–,–
ZADH2 (UniProt Q8N4Q0),active: 0.453,inactive: -0.047,inactive: -0.015,inactive: 0.005,inactive: 0,inactive: -0.012,inactive: -0.066,inactive: 0.049,inactive: 0.153,active: 0.754,active: 0.526,inactive: 0.077,–,inactive: 0.02,–,inactive: -0.013,inactive: -0.004,inactive: 0.004,inactive: 0.13,inactive: 0.023
ZNF148 (UniProt Q9UQR1),inactive: 0.022,inactive: -0.276,inactive: -0.092,inactive: -0.082,–,inactive: 0.047,inactive: -0.02,inactive: -0.191,–,inactive: 0.001,inactive: 0.174,inactive: 0.036,inactive: -0.214,–,inactive: 0.133,inactive: 0.043,inactive: -0.078,inactive: -0.005,inactive: 0.088,inactive: 0.066
ZFAND3 (UniProt Q9H8U3),inactive: -0.106,inactive: 0.067,inactive: -0.067,inactive: 0.113,inactive: -0.014,inactive: -0.004,inactive: 0.001,inactive: 0.002,inactive: 0.158,inactive: 0.149,inactive: 0.014,inactive: 0.16,inactive: -0.007,inactive: -0.023,inactive: 0.036,inactive: -0.005,–,inactive: -0.053,inactive: -0.316,inactive: 0.089
XRCC1 (UniProt P18887),inactive: 0.049,inactive: 0.063,–,inactive: 0.429,–,–,inactive: 0.01,–,–,–,–,inactive: -0.1,–,–,–,inactive: -0.192,inactive: -0.222,–,inactive: 0.006,inactive: -0.239
ZNF207 isoform 2 (UniProt O43670),inactive: -0.029,inactive: -0.129,inactive: 0.033,inactive: -0.15,inactive: 0.158,inactive: 0.028,inactive: 0.083,inactive: -0.114,inactive: 0.135,inactive: -0.049,inactive: -0.006,inactive: 0.044,inactive: 0.126,inactive: 0.069,inactive: 0.054,inactive: -0.035,–,inactive: -0.398,inactive: 0.022,inactive: -0.173
ZFC3H1 (UniProt O60293),inactive: 0.016,inactive: 0.019,–,–,–,–,–,inactive: 0.034,inactive: -0.075,–,inactive: -0.172,–,–,–,inactive: 0.265,–,–,inactive: -0.266,–,–
ZDHHC4 (UniProt Q9NPG8),inactive: 0.065,–,inactive: -0.052,inactive: -0.001,inactive: 0.014,inactive: -0.006,inactive: -0.025,inactive: 0.277,–,inactive: 0.069,–,inactive: -0.136,inactive: -0.094,inactive: 0.134,inactive: 0.077,–,inactive: 0.01,inactive: 0.137,–,–
XK (UniProt P51811),inactive: -0.114,–,inactive: -0.056,–,inactive: -0.207,inactive: -0.116,inactive: 0.011,inactive: -0.046,inactive: 0.062,inactive: 0.014,inactive: -0.133,–,inactive: -0.092,inactive: -0.036,inactive: -0.05,inactive: -0.031,inactive: -0.018,inactive: -0.1,inactive: -0.138,inactive: 0.028

# Part of the list above, reduced to log2 fold change [1], log2 fold change [19] and log2 fold change [11].
Target | log2 fold change [1] | log2 fold change [19] | log2 fold change [11]
ZEB2 (UniProt O60315) | inactive: -0.027 | – | inactive: 0.173
ZMYM4 (UniProt Q5VZL5) | inactive: 0.107 | inactive: 0.076 | inactive: 0.023
